# Assay results published in the supplement of paper PMC7125110.
# ± gives the standard error. Many entries were measured with a wide error.
# B1: glmS ribozyme (parent)
# chain: AUAAAAGCGCCAGAACUACAGAAAUGUAGUUGACGAGGAGGAGGUUUAUCGAAUUUUCGGCGGAUGCCUCCAAA
# Variants of: B1
# Assay: kcat; higher = faster cleavage; RNA array
# Settings: with glucosamine-6-phosphate
# Procedure, shortened: (§1)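 Glucosamine-6-phosphate in HEPES/KCl/Mg(OAc)2 buffer, at 40 μM to 10 mM, was flowed over barcoded ribozyme variants transcribed in situ by E. coli RNA polymerase on sequenced MiSeq chips. Tracking was through a hybridised Cy3 probe at 37 °C. kobs, kcat and KM came from exponential decay fits and weighted Michaelis–Menten fits of normalised per-tile medians.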
row,Variant,kcat [s⁻¹]
1,A15C U65A,0.000715 ± 0.00038
2,A15G A53G,0.0414 ± 0.025
3,A15G C71U,0.00971 ± 0.0089
4,A15G G41A,0.00216 ± 0.0012
5,A15G G51U C71A,1.45e-05 ± 1.7e-06
6,A15G G62U,2.65e-05 ± 2.3e-05
7,A15G U30G,0.0106 ± 0.007
8,C16A C71A,0.000128 ± 2e-05
9,C16A U46G A48G C50U C67A,1.04e-05 ± 4.5e-06
10,C16G A42G,0.00662 ± 0.0036
11,C16G G29U C71U,0.0096 ± 0.006
12,C16U,0.0542 ± 0.005
13,C16U A33C,0.000455 ± 0.0003
14,C16U A39U,0.0586 ± 0.022
15,C16U C58A,0.00179 ± 0.0011
16,C16U C67U,0.00415 ± 0.0027
17,C16U G37A U54C,0.00248 ± 0.0013
18,C16U U30G,0.00537 ± 0.0035
19,C16U U31A,0.0174 ± 0.01
20,C16U U55G,0.00893 ± 0.0059
21,C16U U56G,0.0206 ± 0.015

# 6 neighbouring records out of the list so far, for reference:
row,Variant,kcat [s⁻¹]
13,C16U A33C,0.000455 ± 0.0003
14,C16U A39U,0.0586 ± 0.022
15,C16U C58A,0.00179 ± 0.0011
16,C16U C67U,0.00415 ± 0.0027
17,C16U G37A U54C,0.00248 ± 0.0013
18,C16U U30G,0.00537 ± 0.0035

# Next part

row,Variant,kcat [s⁻¹]
1,G29C A53G,0.00235 ± 0.00053
2,G29C C71G,8.64e-05 ± 1.2e-05
3,G29C G38C,1.07e-05 ± 6.6e-06
4,G29C U56A,0.0026 ± 0.0017
5,G29U A39U,0.00585 ± 0.003
6,G29U A53G C67G,0.000147 ± 2.6e-05
7,G29U C71A,0.00136 ± 0.00094
8,G29U C71U,0.00336 ± 0.0018
9,G29U U54A,0.00792 ± 0.0027
10,G29U U55G,0.00411 ± 0.0023
11,U30A A39G,0.0194 ± 0.019
12,U30A C68G,3.09e-05 ± 1.6e-05
13,U30C C50A U55G,3.98e-05 ± 3e-05
14,U30C C50U C70G,0.00011 ± 6.2e-05
15,U30C G38C,< 1e-05
16,U30C U31C,0.00371 ± 0.0019
17,U30G A39G,0.0174 ± 0.01
18,U31C G37A,0.000734 ± 0.00058
19,U31C G59U,< 1e-05
20,U31G G66A,0.00309 ± 0.0023
21,U31G U45A,0.0285 ± 0.0073

row,Variant,kcat [s⁻¹]
1,U31G U45G,0.00239 ± 0.00077
2,U31G U49G,0.000191 ± 2.6e-06
3,G32C A33G,< 1e-05
4,A33C G37U G38A,1.54e-05 ± 8.3e-06
5,A33G G35U,< 1e-05
6,A33U A64G,0.000146 ± 0.00014
7,C34A A48G U54C G66U C68G,2.22e-05 ± 2.1e-05
8,C34G A64U C67U,< 1e-05
9,G35U C50G,3.86e-05 ± 2.3e-05
10,A36C U69A,4.83e-05 ± 2.6e-05
11,G37A A39U,0.00167 ± 0.00028
12,G37A U47C,0.000634 ± 0.00022
13,G37U C50U A64C C67A,3.46e-05 ± 2e-05
14,G37U G51A,3.2e-05 ± 1.8e-05
15,G38A G51A,< 1e-05
16,G38A G63A,< 1e-05
17,G38A U49A C50A A64U U69C,1.95e-05 ± 1.8e-05
18,G38A U65A,< 1e-05
19,G38C C50A,1.31e-05 ± 7.7e-06

# Variants of: B1
# Assay: KM; higher = weaker cofactor use; RNA array
# Settings: with glucosamine-6-phosphate
# Procedure, shortened: as §1
row,Variant,KM [µM]
1,A15C U65A,2760 ± 2300
2,A15G A53G,2140 ± 1600
3,A15G G41A,958 ± 680
4,A15G G51U C71A,510 ± 210
5,A15G U30G,2880 ± 2500
6,C16A C71A,450 ± 260
7,C16G A42G,3620 ± 3000
8,C16G G29U C71U,1840 ± 1500
9,C16U,2230 ± 230
10,C16U A39U,9390 ± 4200
11,C16U C58A,9960 ± 8200
12,C16U C67U,663 ± 620
13,C16U G37A U54C,5570 ± 4500
14,C16U U30G,12700 ± 9400
15,C16U U31A,2220 ± 1700
16,C16U U55G,904 ± 790

row,Variant,KM [µM]
1,C16U U56G,3010 ± 2800
2,G29C A53G,2630 ± 900
3,G29C C71G,218 ± 160
4,G29C U56A,9740 ± 8800
5,G29U A39U,4390 ± 3000
6,G29U A53G C67G,149 ± 90
7,G29U C71U,1570 ± 1100
8,G29U U54A,2360 ± 1100
9,G29U U55G,6600 ± 5400
10,U30C U31C,3460 ± 3000
11,U30G A39G,3490 ± 2700
12,U31G U45A,2180 ± 720
13,U31G U45G,2930 ± 1500
14,U31G U49G,2140 ± 89
15,G37A A39U,3280 ± 870
16,G37A U47C,1380 ± 810

# Variants of: B1
# Assay: self-cleavage kobs at 2500 uM GlcN6P; higher = faster cleavage; RNA array
# Settings: with glucosamine-6-phosphate
# Procedure, shortened: as §1
row,Variant,self-cleavage kobs at 2500 uM GlcN6P [s⁻¹]
1,A15G U30G,0.00609 ± 0.0034
2,C16G A42G,0.00269 ± 0.0018
3,U30A A39G,0.00385 ± 0.0029

# Variants of: B1
# Assay: self-cleavage kobs at 40 uM GlcN6P; higher = faster cleavage; RNA array
# Settings: with glucosamine-6-phosphate
# Procedure, shortened: as §1
row,Variant,self-cleavage kobs at 40 uM GlcN6P [s⁻¹]
1,C16U G37A U54C,1.69e-05 ± 1.2e-05
2,U31G U45G,2.57e-05 ± 1.5e-05
3,A36C U69A,2.17e-05 ± 1.6e-05
4,G37A A39U,2.15e-05 ± 1.3e-05

# Variants of: B1
# Assay: self-cleavage kobs at 160 uM GlcN6P; higher = faster cleavage; RNA array
# Settings: with glucosamine-6-phosphate
# Procedure, shortened: as §1
row,Variant,self-cleavage kobs at 160 uM GlcN6P [s⁻¹]
1,G29U C71A,0.000152 ± 8.4e-05
2,U30A C68G,3.23e-05 ± 1.6e-05
3,A36C U69A,3.42e-05 ± 2e-05

# Variants of: B1
# Assay: self-cleavage kobs at 10000 uM GlcN6P; higher = faster cleavage; RNA array
# Settings: with glucosamine-6-phosphate
# Procedure, shortened: as §1
row,Variant,self-cleavage kobs at 10000 uM GlcN6P [s⁻¹]
1,U30A C68G,1.64e-05 ± 1e-05
2,G35U C50G,2.22e-05 ± 1.2e-05

# Variants of: B1
# Assay: self-cleavage kobs at 640 uM GlcN6P; higher = faster cleavage; RNA array
# Settings: with glucosamine-6-phosphate
# Procedure, shortened: as §1
row,Variant,self-cleavage kobs at 640 uM GlcN6P [s⁻¹]
1,A33U A64G,1.98e-05 ± 1.5e-05
2,G35U C50G,0.000637 ± 0.00041
3,G37U C50U A64C C67A,4.81e-05 ± 3.4e-05
